Results published in the supplement of paper PMC3334620.
Over roughly 33,000 sequences, “E-score (-0.5 to 0.5)” has its median near -0.0059; the highest 2% begin near 0.26. The list shows a part of the results.

What follows are sequences tested against T1, Cin5 (UniProt P40917) (assay: PBM E-score (8-mer binding enrichment) (E-score (-0.5 to 0.5)); higher = stronger / more preferred TF binding). Details: protein concentration: 100 nM; construct: GST-full length.
T1 sequence: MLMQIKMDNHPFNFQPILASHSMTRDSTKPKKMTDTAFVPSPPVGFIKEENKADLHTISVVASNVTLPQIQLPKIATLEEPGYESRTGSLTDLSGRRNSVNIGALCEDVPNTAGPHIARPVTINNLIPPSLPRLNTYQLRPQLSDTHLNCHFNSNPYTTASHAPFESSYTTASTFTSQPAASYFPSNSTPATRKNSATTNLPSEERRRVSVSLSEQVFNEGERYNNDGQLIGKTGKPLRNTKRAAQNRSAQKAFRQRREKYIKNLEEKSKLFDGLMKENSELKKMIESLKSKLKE
Summary of the method: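 Yeast transcription factors carrying a GST tag, as full-length proteins or DNA-binding domains, were produced by PURExpress in vitro transcription/translation. About 100-200 nM protein was applied to universal all-10-mer Agilent arrays, double-stranded by primer extension on fresh or once-stripped slides. Bound protein was detected with fluorescent anti-GST, and scans were normalised with masliner. The Universal PBM Analysis Suite gave each ungapped eight-base word, pooled with its reverse complement, an E-score, a modified Wilcoxon-Mann-Whitney statistic.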

Sequence | PBM E-score
AACTCCTT | 0.0828
GAGTCATC | 0.053
CTGGATGC | -0.224
CCGTTGCA | -0.0494
GTTATGAA | 0.159
CAATTGAA | -0.0404
ACGTGCAG | -0.137
ACCTACCG | -0.058
CGCTGAAG | -0.0582
AAGCTACT | 0.0722
AGAGTCCA | 0.126
ATTCGGTG | 0.097
CTACCGGC | -0.183
ACCTTGCG | 0.0534
CAAAGAAA | 0.0585
TTCCGGAA | 0.248
GACTGACA | 0.0763
GACTCTCC | -0.189
AAATCCGT | 0.0966
GACAGAAC | 0.113
ATAACCAT | 0.0547
CTGCAAGA | 0.0859
ACCCCATG | 0.184
CGTGCTCC | -0.111
GCTCCATA | -0.0548

4 neighbouring records already listed, for reference:
Sequence | PBM E-score
CTACCGGC | -0.183
ACCTTGCG | 0.0534
CAAAGAAA | 0.0585
TTCCGGAA | 0.248

(further entries)

Sequence | PBM E-score
GGGAGTCA | -0.169
ATTATCGG | -0.0594
ACCCCGGG | -0.158
ACTGTACG | 0.0324
CAAGCCAG | -0.0284
AGCCTATC | -0.0288
CAAATGGA | -0.0888
CGAGCCAG | -0.103
CCGTACAA | 0.00202
ACACTGGT | -0.0563
ATAACGTG | 0.0267
AATCCACC | 0.0897
ACAGTTTG | 0.0772
CAGTTGCG | 0.169
AAGCTAAA | 0.0606
AGCGGGCA | -0.253
ATTTTGAG | 0.0727
CGGTCACC | -0.331
TAAGTAAA | 0.109
AGGAAATG | 0.0125
AACAGCTC | -0.117
GCGCCCCA | -0.0877
AACCGCCT | 0.0325
AGCAGGTG | 0.126
ACGATTAT | 0.274

Sequence | PBM E-score
ATATGAAG | 0.00647
CACTAGCC | -0.0133
ATGTGCAA | 0.035
CACAAAAA | 0.177
ATGTCGCC | 0.00761
AAAGTTAG | 0.217
CATACCAG | -0.082
GCTGGTTA | -0.0216
CGCATGGC | -0.0651
GAAAGACA | 0.158
CGGCAATC | -0.068
GATGACGC | 0.0635
AGTATTTG | 0.0515
AGAGCAAC | -0.203
AACGTTAT | 0.161
ATTGCGGG | 0.0938
ACGTAACT | 0.0957
CCGGATCG | 0.0425
ACATACCA | -0.112
CTCATTCC | 0.147
GGTCGGGA | -0.0297
CGTTCTGA | -0.168
GCAGTTCA | -0.0631
CAGGTTTC | 0.193
AGAACTCG | -0.0129

Sequence | PBM E-score
CCGGGTTA | -0.0642
AGCGCTAT | 0.206
AAGACCGA | 0.0206
GTGTGCCA | -0.132
AAGCGCTC | -0.0985
CTGTGAGA | -0.225
ATTCCTAC | 0.098
AAGTCAAT | 0.154
ATTATCCG | 0.289
AGTCACGA | -0.141
CGTTACTA | 0.0867
CTCTCACA | 0.0393
CCGGAGGC | -0.25
GAGACTTA | -0.148
AGCCATAA | 0.00286
AGACATCC | -0.0942
AAGCGTAA | 0.0919
CTCCATGA | 0.0384
GACATATA | 0.137
TCAAACGA | -0.0242
CATTTTAC | 0.263
ATTCATTC | 0.299
AGGCCCCT | -0.265
CACGGACA | -0.023
TACTGCGA | 0.011

Taken from above:
PBM E-score, AAGACCGA reads 0.0206
PBM E-score, GGTCGGGA reads -0.0297
PBM E-score, CTGTGAGA reads -0.225
PBM E-score, GGGAGTCA reads -0.169
PBM E-score, GACTGACA reads 0.0763
PBM E-score, ATTTTGAG reads 0.0727
PBM E-score, ATTCATTC reads 0.299

(list continues)

Sequence | PBM E-score
CCACCCAC | 0.066
AGTGAGGC | -0.0645
GCCTGCTA | -0.181
AGCACGAA | 0.174
CTTATGCA | 0.106
GTAAGTAC | 0.138
AGGTTCTC | -0.153
CTTCGGCA | -0.123
AGATTACC | 0.14
ACCAAATC | 0.0874
CCTCCCAC | -0.214
TAATGGTA | -0.00375
TAATTGCA | 0.181
ATACCGCC | 0.0264
GTCTTGTA | -0.103
ATCTGGCC | -0.108
GTCTAGAC | -0.231
ACGAGTTA | 0.163
CCCCAAGA | -0.0535
GCAGCTTA | 0.073
CGCTATTC | 0.132
AATGCCTC | 0.00834
CAGCCGTC | -0.0317
ATTGTATG | 0.18
TAGTAACA | 0.145

3 entries drawn at random from the list so far, as already listed:
Sequence | PBM E-score
AGATTACC | 0.14
CTTCGGCA | -0.123
CAGCCGTC | -0.0317

Carrying on:

Sequence | PBM E-score
AAATTGTA | 0.169
CACAGCCG | -0.0347
CTCAGAAC | 0.00723
AGTCCTTA | -0.0362
CCGTTAAA | -0.00661
AACATCGA | 0.155
ATCACAAA | 0.202
GCCAGGGA | -0.194
CGGTTCAA | -0.102
GGGGTAAC | -0.123
AGCGTGGA | -0.0913
ATTGCTAG | -0.02
ACAGGCTC | -0.212
GGAGCTCA | -0.23
CATCCGAG | 0.00132
GGCACACA | -0.0762
CGTGTTAA | 0.0187
GCTTTCAA | 0.0189
CGTGCCAC | -0.275
CGACAGAA | 0.224
GAGTCTAA | -0.138
ACAAAGGG | -0.157
CGGCTACG | -0.109
AGAGAACG | 0.0141
ATGTTTAA | -0.0454

Sequence | PBM E-score
AGAAGTCA | 0.0776
CTCCTGCA | -0.194
AGGCGCGC | 0.0598
ATACTGTC | 0.208
AAGGGTTA | -0.137
ATTTTGCG | 0.207
CCGTCGAG | 0.0466
GCGCCCCC | -0.264
AAATAATT | 0.301
AATGAACC | 0.0103
ACCACCGT | -0.0691
AATATTCC | 0.289
ACGGGGGG | -0.419
AGCCTCAC | -0.0856
CCGAATGA | -0.0132
CGGCGCAC | -0.0276
AGTAAAAA | 0.169
GCTCTGTA | -0.00185
AGTAGGGA | -0.0905
CTACGCTC | -0.1
ATCTCCTC | -0.0974
CGTTTGAA | 0.0201
CGTACGAG | -0.102
GCGTGAAC | -0.122
AAGGTGGC | -0.0601

Sequence | PBM E-score
CTATGAAG | -0.0355
ATGCGCAT | 0.332
AATAGTAC | 0.05
CGATGAGC | -0.0198
ATCGGGCG | -0.0959
CCGCAATA | 0.173
CAACAAAG | 0.15
GACGCCGC | -0.0694
ACCCGGCA | -0.174
ACAGTACG | 0.0139
GATACGAA | 0.133
ATACGTTC | -0.0798
CAAATCGA | 0.112
GGTGCTTA | 0.0985
ACTCTATC | 0.0619
GAGGACTC | -0.303
CCGTTTGC | -0.0266
AACTCCTA | -0.00624
AGATATTG | 0.129
TATAAGCA | 0.256
GTACCTGA | -0.0233
AAGCACTG | 0.0871
CAAGGCAC | -0.105
GTAGTTCA | -0.0154
CCCCGGGC | -0.282

Sequence | PBM E-score
CTGTGGAC | -0.0624
ATGGAGCC | -0.232
TAATGTGA | 0.292
AGTGGGGG | -0.463
AGAAGTTG | -0.193
AATATGCT | 0.145
ACGAATCA | 0.132
CGGCCATC | -0.3
CAATCCTC | -0.129
TGACGCAA | 0.0669
AACTGCAT | 0.22
CACCGGCG | -0.0585
AATACTGT | 0.258
AACCTGAT | 0.0724
CCAGCTTA | 0.182
AATATAAG | 0.276
GGCAGAGA | -0.0513
GGATCGAC | -0.0684
ACCGTACG | -0.192
